Compound in this assay: CC1Cc2ccccc2N1C(=O)C1CCCN(C1)C(=O)CCl (mixture of isomers) [TRIM25 ligand 11 (diastereomer mixture)]
In words: probe-labelled cysteine peptide fold change vs DMSO (competition) (log2 fold change); higher = less target engagement (more negative = stronger competition). The note with it: THP-1, incubation time: 4 h.

Sequences of proteins named here, by UniProt entry; tags and fusion partners are left off. A change or cut given only in a name is not applied to a line headed by its entry.
UniProt Q02809: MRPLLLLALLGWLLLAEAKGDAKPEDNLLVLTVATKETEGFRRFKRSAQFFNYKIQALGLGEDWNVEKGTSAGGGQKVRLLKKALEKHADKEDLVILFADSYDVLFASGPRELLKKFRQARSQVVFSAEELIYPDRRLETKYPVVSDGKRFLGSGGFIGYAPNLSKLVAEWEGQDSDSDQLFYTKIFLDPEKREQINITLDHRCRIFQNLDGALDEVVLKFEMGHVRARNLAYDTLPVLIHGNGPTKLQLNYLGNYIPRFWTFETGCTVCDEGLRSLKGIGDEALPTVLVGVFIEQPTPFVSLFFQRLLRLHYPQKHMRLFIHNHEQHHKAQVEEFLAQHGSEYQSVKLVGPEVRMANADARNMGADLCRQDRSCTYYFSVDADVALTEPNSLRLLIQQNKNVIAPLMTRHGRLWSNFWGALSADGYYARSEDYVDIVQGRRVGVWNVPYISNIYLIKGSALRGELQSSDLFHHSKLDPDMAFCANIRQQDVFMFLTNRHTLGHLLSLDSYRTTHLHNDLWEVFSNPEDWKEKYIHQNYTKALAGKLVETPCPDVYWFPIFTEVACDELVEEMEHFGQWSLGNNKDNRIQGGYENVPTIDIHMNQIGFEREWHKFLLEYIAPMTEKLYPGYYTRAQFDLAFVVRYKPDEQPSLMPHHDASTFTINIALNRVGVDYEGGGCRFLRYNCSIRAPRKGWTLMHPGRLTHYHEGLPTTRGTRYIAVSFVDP
UniProt Q9Y2I7: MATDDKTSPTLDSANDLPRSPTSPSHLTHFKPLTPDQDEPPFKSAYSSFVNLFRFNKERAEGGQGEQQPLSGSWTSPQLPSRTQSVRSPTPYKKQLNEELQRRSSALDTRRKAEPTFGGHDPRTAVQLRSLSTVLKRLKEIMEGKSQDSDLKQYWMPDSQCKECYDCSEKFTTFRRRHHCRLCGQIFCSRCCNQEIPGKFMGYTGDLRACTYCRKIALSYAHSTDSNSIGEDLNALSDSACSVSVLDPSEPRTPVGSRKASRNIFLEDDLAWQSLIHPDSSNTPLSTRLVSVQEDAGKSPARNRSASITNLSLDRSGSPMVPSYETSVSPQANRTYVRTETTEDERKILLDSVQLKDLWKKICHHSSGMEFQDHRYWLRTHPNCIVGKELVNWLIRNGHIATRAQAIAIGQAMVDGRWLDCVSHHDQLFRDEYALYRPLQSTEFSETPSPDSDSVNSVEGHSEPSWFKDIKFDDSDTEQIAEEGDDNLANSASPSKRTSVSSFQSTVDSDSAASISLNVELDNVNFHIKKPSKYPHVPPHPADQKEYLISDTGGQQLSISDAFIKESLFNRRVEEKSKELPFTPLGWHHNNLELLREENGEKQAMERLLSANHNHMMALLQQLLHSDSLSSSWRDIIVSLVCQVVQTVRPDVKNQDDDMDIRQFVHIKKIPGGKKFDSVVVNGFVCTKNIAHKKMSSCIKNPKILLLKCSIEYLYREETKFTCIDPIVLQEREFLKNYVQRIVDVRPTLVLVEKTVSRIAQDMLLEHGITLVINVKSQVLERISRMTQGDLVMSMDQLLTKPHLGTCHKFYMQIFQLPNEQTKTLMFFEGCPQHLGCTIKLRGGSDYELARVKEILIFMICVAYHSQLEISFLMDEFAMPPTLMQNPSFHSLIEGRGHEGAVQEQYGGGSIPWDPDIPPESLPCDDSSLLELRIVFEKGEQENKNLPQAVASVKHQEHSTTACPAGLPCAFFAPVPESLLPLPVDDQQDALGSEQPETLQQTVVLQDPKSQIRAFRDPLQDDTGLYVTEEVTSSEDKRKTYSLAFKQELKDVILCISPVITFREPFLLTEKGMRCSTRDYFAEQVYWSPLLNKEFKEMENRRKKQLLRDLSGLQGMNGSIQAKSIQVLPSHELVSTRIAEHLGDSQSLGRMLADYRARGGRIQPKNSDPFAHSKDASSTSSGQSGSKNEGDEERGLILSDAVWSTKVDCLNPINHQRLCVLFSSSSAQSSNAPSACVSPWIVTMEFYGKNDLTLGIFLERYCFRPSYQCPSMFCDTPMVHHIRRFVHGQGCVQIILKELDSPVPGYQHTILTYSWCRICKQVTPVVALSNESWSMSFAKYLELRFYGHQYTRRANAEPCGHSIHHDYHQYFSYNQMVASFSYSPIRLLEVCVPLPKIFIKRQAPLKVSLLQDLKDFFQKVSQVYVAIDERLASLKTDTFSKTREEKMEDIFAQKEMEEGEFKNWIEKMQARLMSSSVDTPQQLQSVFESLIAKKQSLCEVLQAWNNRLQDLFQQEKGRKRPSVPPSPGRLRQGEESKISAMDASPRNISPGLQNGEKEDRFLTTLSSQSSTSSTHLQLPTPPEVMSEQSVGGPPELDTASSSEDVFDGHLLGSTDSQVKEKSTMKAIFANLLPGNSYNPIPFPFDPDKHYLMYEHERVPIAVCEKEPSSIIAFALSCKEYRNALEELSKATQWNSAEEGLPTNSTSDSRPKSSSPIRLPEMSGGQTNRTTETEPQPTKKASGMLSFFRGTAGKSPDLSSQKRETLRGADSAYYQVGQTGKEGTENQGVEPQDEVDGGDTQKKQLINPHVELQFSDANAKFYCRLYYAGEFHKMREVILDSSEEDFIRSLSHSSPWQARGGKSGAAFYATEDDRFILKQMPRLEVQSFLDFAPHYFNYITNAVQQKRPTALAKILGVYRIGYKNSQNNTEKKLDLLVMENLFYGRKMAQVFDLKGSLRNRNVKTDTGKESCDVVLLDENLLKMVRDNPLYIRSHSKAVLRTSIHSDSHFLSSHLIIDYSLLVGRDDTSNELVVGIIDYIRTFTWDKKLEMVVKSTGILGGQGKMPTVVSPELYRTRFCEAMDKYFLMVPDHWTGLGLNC
UniProt Q9Y263: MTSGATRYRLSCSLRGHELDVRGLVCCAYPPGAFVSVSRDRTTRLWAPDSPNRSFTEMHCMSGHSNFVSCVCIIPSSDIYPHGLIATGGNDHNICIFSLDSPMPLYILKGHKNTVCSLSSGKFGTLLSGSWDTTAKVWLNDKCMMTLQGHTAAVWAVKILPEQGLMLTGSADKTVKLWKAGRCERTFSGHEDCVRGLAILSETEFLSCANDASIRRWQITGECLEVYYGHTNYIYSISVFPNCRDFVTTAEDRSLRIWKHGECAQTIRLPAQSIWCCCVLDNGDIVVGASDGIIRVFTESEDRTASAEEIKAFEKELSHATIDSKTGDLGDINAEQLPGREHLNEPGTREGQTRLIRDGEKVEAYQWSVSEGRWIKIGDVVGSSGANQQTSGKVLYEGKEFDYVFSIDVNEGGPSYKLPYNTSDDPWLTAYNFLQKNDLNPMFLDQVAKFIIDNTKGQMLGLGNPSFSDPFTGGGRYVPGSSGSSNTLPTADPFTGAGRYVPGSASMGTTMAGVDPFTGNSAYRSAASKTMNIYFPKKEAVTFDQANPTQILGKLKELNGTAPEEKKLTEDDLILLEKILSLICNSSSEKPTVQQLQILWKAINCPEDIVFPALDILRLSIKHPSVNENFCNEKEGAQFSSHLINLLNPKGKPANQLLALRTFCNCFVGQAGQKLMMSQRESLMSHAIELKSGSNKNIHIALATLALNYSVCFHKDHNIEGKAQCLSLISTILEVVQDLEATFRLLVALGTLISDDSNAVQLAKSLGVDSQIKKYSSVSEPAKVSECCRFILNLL
UniProt P14618, whole entry, looked up: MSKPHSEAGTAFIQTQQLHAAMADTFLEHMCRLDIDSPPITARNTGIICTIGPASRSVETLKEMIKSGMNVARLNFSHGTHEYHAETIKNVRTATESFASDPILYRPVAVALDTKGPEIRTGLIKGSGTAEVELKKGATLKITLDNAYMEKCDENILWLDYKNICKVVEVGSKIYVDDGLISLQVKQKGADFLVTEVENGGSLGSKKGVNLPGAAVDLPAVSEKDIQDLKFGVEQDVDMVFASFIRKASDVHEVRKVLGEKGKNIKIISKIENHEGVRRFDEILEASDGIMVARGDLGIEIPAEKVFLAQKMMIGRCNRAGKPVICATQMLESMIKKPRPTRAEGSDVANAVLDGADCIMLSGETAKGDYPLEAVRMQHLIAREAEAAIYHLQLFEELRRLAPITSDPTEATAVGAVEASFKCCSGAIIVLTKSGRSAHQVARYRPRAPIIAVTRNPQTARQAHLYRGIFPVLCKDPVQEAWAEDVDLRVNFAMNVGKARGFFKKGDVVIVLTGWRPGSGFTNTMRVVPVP
UniProt O75439: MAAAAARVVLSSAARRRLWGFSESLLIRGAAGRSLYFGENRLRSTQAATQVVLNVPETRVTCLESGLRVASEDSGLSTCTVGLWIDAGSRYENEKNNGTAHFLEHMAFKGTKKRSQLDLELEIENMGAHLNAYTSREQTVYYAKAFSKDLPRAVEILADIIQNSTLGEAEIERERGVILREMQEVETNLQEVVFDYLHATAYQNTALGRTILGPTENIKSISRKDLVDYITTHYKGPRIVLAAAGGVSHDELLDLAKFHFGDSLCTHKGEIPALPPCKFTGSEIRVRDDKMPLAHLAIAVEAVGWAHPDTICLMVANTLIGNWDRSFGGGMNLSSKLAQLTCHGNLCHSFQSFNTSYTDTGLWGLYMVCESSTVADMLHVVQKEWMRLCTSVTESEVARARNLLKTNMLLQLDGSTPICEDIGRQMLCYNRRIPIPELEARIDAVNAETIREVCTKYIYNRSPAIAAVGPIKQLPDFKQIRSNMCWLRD
UniProt P29590: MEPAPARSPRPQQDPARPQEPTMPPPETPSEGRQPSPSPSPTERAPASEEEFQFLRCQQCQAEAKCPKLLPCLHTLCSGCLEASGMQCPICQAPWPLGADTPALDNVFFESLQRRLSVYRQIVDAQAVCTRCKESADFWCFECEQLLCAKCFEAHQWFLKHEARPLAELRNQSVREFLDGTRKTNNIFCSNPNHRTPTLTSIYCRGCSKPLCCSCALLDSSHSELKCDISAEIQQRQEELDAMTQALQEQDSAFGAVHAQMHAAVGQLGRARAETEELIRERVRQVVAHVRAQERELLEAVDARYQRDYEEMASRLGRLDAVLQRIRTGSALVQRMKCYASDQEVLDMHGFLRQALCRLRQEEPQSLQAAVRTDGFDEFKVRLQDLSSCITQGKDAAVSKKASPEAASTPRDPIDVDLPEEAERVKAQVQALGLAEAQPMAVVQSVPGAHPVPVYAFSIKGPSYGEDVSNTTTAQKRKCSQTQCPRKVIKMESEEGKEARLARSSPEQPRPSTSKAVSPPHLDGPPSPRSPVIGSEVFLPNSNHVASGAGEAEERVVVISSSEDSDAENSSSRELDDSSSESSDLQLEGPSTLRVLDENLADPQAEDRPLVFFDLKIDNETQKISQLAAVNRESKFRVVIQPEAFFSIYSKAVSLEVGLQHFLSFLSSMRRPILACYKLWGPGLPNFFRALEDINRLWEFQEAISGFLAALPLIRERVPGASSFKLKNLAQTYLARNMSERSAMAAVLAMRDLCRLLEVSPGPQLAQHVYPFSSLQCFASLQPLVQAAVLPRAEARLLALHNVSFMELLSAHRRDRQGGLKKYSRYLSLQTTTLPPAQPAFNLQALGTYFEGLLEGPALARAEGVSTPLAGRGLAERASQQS
UniProt P08567: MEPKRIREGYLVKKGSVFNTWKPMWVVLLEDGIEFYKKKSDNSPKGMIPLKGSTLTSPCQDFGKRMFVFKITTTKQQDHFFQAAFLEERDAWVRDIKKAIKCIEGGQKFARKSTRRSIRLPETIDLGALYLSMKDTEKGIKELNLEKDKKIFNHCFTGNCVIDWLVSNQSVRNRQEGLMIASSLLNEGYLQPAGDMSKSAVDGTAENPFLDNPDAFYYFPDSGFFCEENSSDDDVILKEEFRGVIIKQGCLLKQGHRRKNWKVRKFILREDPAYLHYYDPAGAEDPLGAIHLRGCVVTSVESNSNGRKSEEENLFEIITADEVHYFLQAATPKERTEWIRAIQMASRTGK
UniProt Q8IV08: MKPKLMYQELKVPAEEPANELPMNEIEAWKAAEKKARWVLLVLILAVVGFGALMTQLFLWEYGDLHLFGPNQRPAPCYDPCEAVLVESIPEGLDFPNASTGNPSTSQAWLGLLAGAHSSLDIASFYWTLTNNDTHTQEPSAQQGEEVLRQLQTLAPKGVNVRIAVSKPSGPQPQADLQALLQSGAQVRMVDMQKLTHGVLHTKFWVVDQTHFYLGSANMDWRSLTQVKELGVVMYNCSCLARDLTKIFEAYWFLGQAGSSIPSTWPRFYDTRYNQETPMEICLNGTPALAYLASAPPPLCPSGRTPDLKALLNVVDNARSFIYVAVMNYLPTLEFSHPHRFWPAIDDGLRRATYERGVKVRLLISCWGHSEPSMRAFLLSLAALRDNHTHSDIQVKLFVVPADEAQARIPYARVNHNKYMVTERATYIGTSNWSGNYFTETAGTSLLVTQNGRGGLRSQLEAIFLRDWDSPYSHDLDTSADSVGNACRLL

This is one part of the list.
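Note: competitive chemoproteomic profiling in live THP-1 cells with an iodoacetamide desthiobiotin (IA-DTB) probe, comparing probe-labelled peptide intensities in compound-treated cells against DMSO-treated controls.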

“PLD4_Q96BZ4_379_LLVGCGLNTDPTMFPYLR (UniProt Q96BZ4)”: the “probe-labelled cysteine peptide fold change” value (10 µM) is 0.0996 and the “probe-labelled cysteine peptide fold change” value (50 µM) came out at 0.0738.
For “PLG_P00747_398_KCQSWSSMTPHR (UniProt P00747)”, in that order: -0.0835 and -0.104.
The corresponding values for “PIK3R1_P27986_146_GLECSTLYR (UniProt P27986)” are 0.17 and 0.189.
The corresponding values for “PLOD1_Q02809_369_NMGADLCR (UniProt Q02809)” are 0.0145 and 0.0742.
On to “PIKFYVE_Q9Y2I7_1677_EPSSIIAFALSCK (UniProt Q9Y2I7)”, for which the “probe-labelled cysteine peptide fold change” value (10 µM) was -0.0654 and the “probe-labelled cysteine peptide fold change” value (50 µM) is -0.176.
For “PLAA_Q9Y263_278_LPAQSIWCCCVLDNGDIVVGASDGIIR (UniProt Q9Y263)”, in that order: -0.164 and 0.0627.
Turning to “PKN1_Q16512_120_LDLLHQQLQELHAHVVLPDPAATHDGPQSPGAGGPTCSATNLSR (UniProt Q16512)”, the “probe-labelled cysteine peptide fold change” value reads like this: (10 µM) -0.00381; (50 µM) -0.137.
For “PLCL2_Q9UPR0_794_GDVVDPYVYVEIHGIPADCAEQR (UniProt Q9UPR0)”, the “probe-labelled cysteine peptide fold change” value is -0.0541 (10 µM) and -0.112 (50 µM).
As for “PIK3R4_Q99570_84_LNSAQNCLPFQK (UniProt Q99570)”, the “probe-labelled cysteine peptide fold change” value is -0.0256 (10 µM) and -0.0742 (50 µM).
For “PKN1_Q16512_469_HEVQLDMEPQGCLVAEVTFR (UniProt Q16512)”, in that order: -0.0844 and 0.0973.
With “PKM_P14618_326_PVICATQMLESMIK (UniProt P14618)”, the “probe-labelled cysteine peptide fold change” value was -0.0487 (10 µM) and -0.0738 (50 µM).
For PMS1_P54277_915_ECVHGR (UniProt P54277), in that order: 0.328 and 0.196.
The corresponding values for “PMPCB_O75439_265_FHFGDSLCTHK (UniProt O75439)” are 0.0698 and -0.273.
On to “PML_P29590_129_QIVDAQAVCTR (UniProt P29590)”, for which the “probe-labelled cysteine peptide fold change” value is 0.0212 (10 µM) and -0.0324 (50 µM).
For “PLEC_Q15149_3493_TLLQGSGCLAGIYLEDTK (UniProt Q15149)”, in that order: 0.241 and 0.0674.
For “PLEK_P08567_295_GCVVTSVESNSNGR (UniProt P08567)”, in that order: -0.156 and 0.00951.
“PINX1_Q96BK5_145_SKTDLDCIFGK (UniProt Q96BK5)”: the “probe-labelled cysteine peptide fold change” value is, setting by setting: (10 µM) -0.138; (50 µM) -0.268.
The corresponding values for “PLSCR1_O15162_254_SLDEQCVVGK (UniProt O15162)” are 0.226 and 0.125.
For “PLAA_Q9Y263_193_TFSGHEDCVR (UniProt Q9Y263)”, in that order: 0.0747 and -0.0639.
For “PLEK_P08567_59_GSTLTSPCQDFGK (UniProt P08567)”, in that order: -0.0148 and 0.0238.
With “PLAA_Q9Y263_666_TFCNCFVGQAGQK (UniProt Q9Y263)”, the “probe-labelled cysteine peptide fold change” value (10 µM) was -0.109 and the “probe-labelled cysteine peptide fold change” value (50 µM) amounted to 0.0225.
For “PMPCB_O75439_389_LCTSVTESEVAR (UniProt O75439)”, in that order: 0.204 and 0.199.
The corresponding values for “PLCB2_Q00722_1108_QAACLEQIR (UniProt Q00722)” are 0.0693 and 0.23.
For “PKM_P14618_31_PHSEAGTAFIQTQQLHAAMADTFLEHMCR (UniProt P14618)”, in that order: -0.00318 and 0.0277.
Regarding “PML_P29590_151_CFEAHQWFLK (UniProt P29590)”, the “probe-labelled cysteine peptide fold change” value is -0.0245 (10 µM) and -0.0707 (50 µM).
“PML_P29590_57+60_CQQCQAEAK (UniProt P29590)”: the “probe-labelled cysteine peptide fold change” value is -0.00539 (10 µM) and -0.0513 (50 µM).
The corresponding values for “PLD1_Q13393_1004_CLPNDEVHNLIQLR (UniProt Q13393)” are 0.0737 and 0.261.
The corresponding values for “PIK3CD_O00329_718_ELMHLCMR (UniProt O00329)” are 0.0534 and 0.104.
For “PML_P29590_338_CYASDQEVLDMHGFLR (UniProt P29590)”, in that order: 0.0065 and -0.0375.
With “PML_P29590_189_KTNNIFCSNPNHR (UniProt P29590)”, the “probe-labelled cysteine peptide fold change” value (10 µM) is -0.0392 and the “probe-labelled cysteine peptide fold change” value (50 µM) was -0.137.
The corresponding values for “PLAA_Q9Y263_208_GLAILSETEFLSCANDASIR (UniProt Q9Y263)” are 0.14 and 0.0261.
For the target “PLD3_Q8IV08_366_LLISCWGHSEPSMR (UniProt Q8IV08)”, the “probe-labelled cysteine peptide fold change” value by setting is: (10 µM) -0.0913; (50 µM) 0.0956.
For the target “PLEC_Q15149_1098_EYGSCSHHYQQLLQSLEQGAQEESR (UniProt Q15149)”, the “probe-labelled cysteine peptide fold change” value (10 µM) was 0.00989 and the “probe-labelled cysteine peptide fold change” value (50 µM) is -0.19.
As for “PIKFYVE_Q9Y2I7_831_TLMFFEGCPQHLGCTIK (UniProt Q9Y2I7)”, the “probe-labelled cysteine peptide fold change” value is -0.0789 (10 µM) and -0.0387 (50 µM).
For “PNKD_Q8N490_170_EGVTLVAILCTHK (UniProt Q8N490)”, in that order: -0.0503 and 0.107.
